Data source: PubChem BioAssay AID493246 (Drosophila RNAi Screening Center, 2011)

- Screen: 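Genome-wide search for dsRNAs that reduce cell number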 (primary screen)
- System: Drosophila Kc and S2R+ cells
- Reagents: long dsRNA against Drosophila genes
- Read-out: 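Cell number per well after knock-down, printed as raw plate values; calls were based on per-plate z-scores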
- Reading the numbers: Kc cell number and S2R+ cell number: higher = more cells remaining
- Rule for the call: 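Counted as a hit if cell number falls by a z-score of at least 3 within its plate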
The deposit covers about 21,000 reagents; this is an unselected part of those with a known target gene and a result. In the full data, 429 (2%) were called active. 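Values are raw and not normalised between plates; calls rest on per-plate z-scores that were not deposited.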 A number with no mark means an inactive call. The numbers tell different reagents against one gene apart. A plus sign joins genes that one reagent is predicted to hit. The record does not give: the amount of reagent, the time to read-out.

With knock-down of Acbp6 (Acyl-CoA binding protein 6), the screen gave Kc cell number, rep 1 = 1.60e6; Kc cell number, rep 2 = 1.40e6; S2R+ cell number, rep 1 = 1.05e6; S2R+ cell number, rep 2 = 1.21e6. For Or33c (Odorant receptor 33c) the deposit lists Kc cell number, rep 1 = 1.51e6; Kc cell number, rep 2 = 1.61e6; S2R+ cell number, rep 1 = 1.26e6; S2R+ cell number, rep 2 = 1.41e6. After knock-down of otp (orthopedia) #1 the results were Kc cell number, rep 1 = 1.46e6; Kc cell number, rep 2 = 1.59e6; S2R+ cell number, rep 1 = 1.24e6; S2R+ cell number, rep 2 = 4.20e5. otp (orthopedia) #2 showed Kc cell number, rep 1 = 1.41e6; Kc cell number, rep 2 = 1.57e6; S2R+ cell number, rep 1 = 1.22e6; S2R+ cell number, rep 2 = 4.02e5. Cad89D (Cadherin 89D) gave Kc cell number, rep 1 = 1.35e6; Kc cell number, rep 2 = 1.41e6; S2R+ cell number, rep 1 = 1.13e6; S2R+ cell number, rep 2 = 1.28e6. CG33255 (retired record) + hpRNA:CR32205 + hpRNA:CR32207 showed Kc cell number, rep 1 = 1.36e6; Kc cell number, rep 2 = 1.46e6; S2R+ cell number, rep 1 = 1.09e6; S2R+ cell number, rep 2 = 1.27e6.

CG32163 showed Kc cell number, rep 1 = 1.23e6; Kc cell number, rep 2 = 1.22e6; S2R+ cell number, rep 1 = 1.00e6; S2R+ cell number, rep 2 = 1.11e6. After knock-down of Mon1 (Monensin sensitivity 1) the results were Kc cell number, rep 1 = 1.68e6; Kc cell number, rep 2 = 1.59e6; S2R+ cell number, rep 1 = 1.14e6; S2R+ cell number, rep 2 = 1.33e6. Against NPFR (Neuropeptide F receptor) the deposit lists Kc cell number, rep 1 = 1.67e6; Kc cell number, rep 2 = 1.80e6; S2R+ cell number, rep 1 = 1.29e6; S2R+ cell number, rep 2 = 1.40e6. Nup93-1 (Nucleoporin 93kD-1) gave Kc cell number, rep 1 = 4.89e5; S2R+ cell number, rep 1 = 7.86e5. For CG10171, the values are Kc cell number, rep 1 = 1.28e6; Kc cell number, rep 2 = 1.41e6; S2R+ cell number, rep 1 = 1.39e6; S2R+ cell number, rep 2 = 1.05e6. For exd (extradenticle), the entry reads Kc cell number, rep 1 = 1.57e6; Kc cell number, rep 2 = 1.58e6; S2R+ cell number, rep 1 = 1.10e6; S2R+ cell number, rep 2 = 1.22e6.

Records above whose target name begins with N or n:
NPFR (Neuropeptide F receptor) | Kc cell number, rep 1 = 1.67e6; Kc cell number, rep 2 = 1.80e6; S2R+ cell number, rep 1 = 1.29e6; S2R+ cell number, rep 2 = 1.40e6
Nup93-1 (Nucleoporin 93kD-1) | Kc cell number, rep 1 = 4.89e5; S2R+ cell number, rep 1 = 7.86e5
